Data taken from paper doi:10.1101/2025.02.27.640524 (bioRxiv, 2025).
These are yes or no findings as the source states them, for the method shown. In cells and extracts the contact can be indirect. Some binding calls cover weakened binding; strength is not graded here. Sequences can lack the tags named with a protein.

By UniProt entry, the sequences of proteins in these tests, tags left out.
UniProt C8VTS4: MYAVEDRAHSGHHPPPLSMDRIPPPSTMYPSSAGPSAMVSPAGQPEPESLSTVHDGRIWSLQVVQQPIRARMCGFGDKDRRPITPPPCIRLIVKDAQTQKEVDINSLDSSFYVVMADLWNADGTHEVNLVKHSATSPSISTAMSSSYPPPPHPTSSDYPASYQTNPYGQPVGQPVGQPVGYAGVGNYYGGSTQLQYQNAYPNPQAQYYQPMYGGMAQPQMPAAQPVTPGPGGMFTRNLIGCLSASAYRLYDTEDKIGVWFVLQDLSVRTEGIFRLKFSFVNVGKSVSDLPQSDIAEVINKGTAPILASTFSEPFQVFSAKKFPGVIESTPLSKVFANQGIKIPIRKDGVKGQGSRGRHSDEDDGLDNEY

Experiments:
[1] = molecular target: T1, VeA-HA (A. nidulans Velvet A with HA tag) (Aspergillus nidulans) (UniProt C8VTV4); assay: co-IP
T1 sequence: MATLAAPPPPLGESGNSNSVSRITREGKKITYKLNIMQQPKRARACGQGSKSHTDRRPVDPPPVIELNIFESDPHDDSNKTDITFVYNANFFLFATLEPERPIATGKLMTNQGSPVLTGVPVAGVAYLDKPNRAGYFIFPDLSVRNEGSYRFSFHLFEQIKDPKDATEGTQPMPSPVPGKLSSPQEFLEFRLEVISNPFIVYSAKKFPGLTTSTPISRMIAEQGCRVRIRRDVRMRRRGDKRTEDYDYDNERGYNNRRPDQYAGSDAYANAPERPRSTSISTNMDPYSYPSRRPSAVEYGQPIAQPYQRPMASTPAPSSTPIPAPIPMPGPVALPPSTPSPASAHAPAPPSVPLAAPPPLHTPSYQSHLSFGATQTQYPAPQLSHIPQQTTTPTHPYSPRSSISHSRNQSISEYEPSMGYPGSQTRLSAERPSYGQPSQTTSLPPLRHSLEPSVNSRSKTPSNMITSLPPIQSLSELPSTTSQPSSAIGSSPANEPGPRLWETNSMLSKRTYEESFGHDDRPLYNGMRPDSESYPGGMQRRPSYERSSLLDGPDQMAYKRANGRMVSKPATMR

[2] = molecular target: T2, VosA-HA (A. nidulans VosA with HA tag) (Aspergillus nidulans) (UniProt Q5BBX1); assay: co-IP
T2 sequence: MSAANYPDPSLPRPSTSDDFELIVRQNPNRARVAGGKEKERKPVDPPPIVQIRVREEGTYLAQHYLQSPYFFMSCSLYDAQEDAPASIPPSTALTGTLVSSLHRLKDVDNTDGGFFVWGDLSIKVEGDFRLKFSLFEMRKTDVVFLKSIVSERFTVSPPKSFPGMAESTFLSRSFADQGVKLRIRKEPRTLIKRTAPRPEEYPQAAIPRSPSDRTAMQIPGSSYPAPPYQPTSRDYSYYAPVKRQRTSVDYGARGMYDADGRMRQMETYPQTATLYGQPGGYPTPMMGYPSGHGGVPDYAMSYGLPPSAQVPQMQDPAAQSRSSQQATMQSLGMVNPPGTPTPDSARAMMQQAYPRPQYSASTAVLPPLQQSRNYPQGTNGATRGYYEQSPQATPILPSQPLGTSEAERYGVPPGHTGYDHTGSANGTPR

[3] = molecular target: T3, VosA-GST (full length A. nidulans VosA fused to GST) (Aspergillus nidulans) (UniProt Q5BBX1); assay: pull-down
T3 sequence: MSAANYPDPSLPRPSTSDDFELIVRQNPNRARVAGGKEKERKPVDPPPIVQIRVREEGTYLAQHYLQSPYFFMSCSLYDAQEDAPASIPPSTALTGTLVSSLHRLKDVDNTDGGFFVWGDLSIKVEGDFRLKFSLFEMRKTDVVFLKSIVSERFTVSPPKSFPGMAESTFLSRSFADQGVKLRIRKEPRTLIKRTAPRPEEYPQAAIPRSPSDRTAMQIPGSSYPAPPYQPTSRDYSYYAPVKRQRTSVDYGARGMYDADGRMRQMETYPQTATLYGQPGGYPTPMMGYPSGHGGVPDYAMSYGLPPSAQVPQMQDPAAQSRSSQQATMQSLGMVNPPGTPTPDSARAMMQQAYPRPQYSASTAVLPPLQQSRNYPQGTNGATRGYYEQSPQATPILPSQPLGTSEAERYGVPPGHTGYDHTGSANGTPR

[4] = molecular target: VelB-GFP (full length A. nidulans Velvet-like B fused to GFP) (Aspergillus nidulans) (UniProt C8VTS4); assay: co-IP

Molecule: VelB-GFP (full length A. nidulans Velvet-like B fused to GFP) (from UniProt C8VTS4 1-369)
- binding [1]: binds
- binding [2]: binds

Molecule: VelB-His (full length A. nidulans VelB with His tag) (from UniProt C8VTS4 1-369)
- binding [3]: binds

B1: VosA-HA (A. nidulans VosA with HA tag) (natural protein)
chain: MSAANYPDPSLPRPSTSDDFELIVRQNPNRARVAGGKEKERKPVDPPPIVQIRVREEGTYLAQHYLQSPYFFMSCSLYDAQEDAPASIPPSTALTGTLVSSLHRLKDVDNTDGGFFVWGDLSIKVEGDFRLKFSLFEMRKTDVVFLKSIVSERFTVSPPKSFPGMAESTFLSRSFADQGVKLRIRKEPRTLIKRTAPRPEEYPQAAIPRSPSDRTAMQIPGSSYPAPPYQPTSRDYSYYAPVKRQRTSVDYGARGMYDADGRMRQMETYPQTATLYGQPGGYPTPMMGYPSGHGGVPDYAMSYGLPPSAQVPQMQDPAAQSRSSQQATMQSLGMVNPPGTPTPDSARAMMQQAYPRPQYSASTAVLPPLQQSRNYPQGTNGATRGYYEQSPQATPILPSQPLGTSEAERYGVPPGHTGYDHTGSANGTPR
- binding [4]: binds

B2: VeA-HA (A. nidulans Velvet A with HA tag) (protein, UniProt C8VTV4 1-573)
chain: MATLAAPPPPLGESGNSNSVSRITREGKKITYKLNIMQQPKRARACGQGSKSHTDRRPVDPPPVIELNIFESDPHDDSNKTDITFVYNANFFLFATLEPERPIATGKLMTNQGSPVLTGVPVAGVAYLDKPNRAGYFIFPDLSVRNEGSYRFSFHLFEQIKDPKDATEGTQPMPSPVPGKLSSPQEFLEFRLEVISNPFIVYSAKKFPGLTTSTPISRMIAEQGCRVRIRRDVRMRRRGDKRTEDYDYDNERGYNNRRPDQYAGSDAYANAPERPRSTSISTNMDPYSYPSRRPSAVEYGQPIAQPYQRPMASTPAPSSTPIPAPIPMPGPVALPPSTPSPASAHAPAPPSVPLAAPPPLHTPSYQSHLSFGATQTQYPAPQLSHIPQQTTTPTHPYSPRSSISHSRNQSISEYEPSMGYPGSQTRLSAERPSYGQPSQTTSLPPLRHSLEPSVNSRSKTPSNMITSLPPIQSLSELPSTTSQPSSAIGSSPANEPGPRLWETNSMLSKRTYEESFGHDDRPLYNGMRPDSESYPGGMQRRPSYERSSLLDGPDQMAYKRANGRMVSKPATMR
- binding [4]: binds
